Some of the results follow.
Compound: c1cn2cc(-c3ccc4cn[nH]c4c3)nc(Nc3ccc(N4CCOCC4)cc3)c2n1 [entospletinib]
Test: log2 fold change, soluble protein after heating vs DMSO (PISA); higher = thermal stabilisation; K562 cells, 10 uM, 30 min; active = over 0.2 and 3.5 SD of the protein, either way, in both replicates (recomputed)
Summary of the method: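 Values are thermal stability changes relative to control samples and are taken from duplicates. They are stated as log2 fold changes. Before quantification by TMTpro 16plex LC-MS/MS with equalised channel sums, K562 cells at 2×10^6 cells/mL were treated with 10 μM compound for 30 min, heated in aliquots for 3 min across 48°C-58°C, pooled, extracted in PBS with 0.5% NP-40 at 4°C, and centrifuged at 21,000xg for 90 min to give the soluble supernatant.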

Sequences of proteins named here, by UniProt entry; tags and fusion partners are left off. A change or cut given only in a name is not applied to a line headed by its entry.
UniProt P78406: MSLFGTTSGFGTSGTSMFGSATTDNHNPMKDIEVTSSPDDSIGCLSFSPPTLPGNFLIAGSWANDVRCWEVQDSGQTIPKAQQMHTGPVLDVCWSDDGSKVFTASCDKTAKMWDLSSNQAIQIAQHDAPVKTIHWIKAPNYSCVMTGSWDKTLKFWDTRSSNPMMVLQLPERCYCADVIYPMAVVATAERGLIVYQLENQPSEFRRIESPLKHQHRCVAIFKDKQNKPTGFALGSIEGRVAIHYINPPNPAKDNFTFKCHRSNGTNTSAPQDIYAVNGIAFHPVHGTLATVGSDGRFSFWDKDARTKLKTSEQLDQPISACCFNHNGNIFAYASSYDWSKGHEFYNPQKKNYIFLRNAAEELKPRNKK
UniProt Q96QF0: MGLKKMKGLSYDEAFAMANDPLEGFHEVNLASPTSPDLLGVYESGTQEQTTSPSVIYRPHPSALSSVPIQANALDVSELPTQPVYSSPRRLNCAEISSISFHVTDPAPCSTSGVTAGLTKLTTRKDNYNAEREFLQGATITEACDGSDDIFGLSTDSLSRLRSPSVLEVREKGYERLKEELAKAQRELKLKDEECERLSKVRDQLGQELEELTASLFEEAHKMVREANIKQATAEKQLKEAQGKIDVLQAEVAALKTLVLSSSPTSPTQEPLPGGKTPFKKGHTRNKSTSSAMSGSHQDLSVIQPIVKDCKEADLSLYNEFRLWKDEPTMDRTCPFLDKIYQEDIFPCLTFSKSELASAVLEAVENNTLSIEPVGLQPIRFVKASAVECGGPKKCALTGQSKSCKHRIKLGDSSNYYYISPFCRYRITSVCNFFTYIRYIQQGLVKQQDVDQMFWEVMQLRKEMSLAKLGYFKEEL
UniProt O15315: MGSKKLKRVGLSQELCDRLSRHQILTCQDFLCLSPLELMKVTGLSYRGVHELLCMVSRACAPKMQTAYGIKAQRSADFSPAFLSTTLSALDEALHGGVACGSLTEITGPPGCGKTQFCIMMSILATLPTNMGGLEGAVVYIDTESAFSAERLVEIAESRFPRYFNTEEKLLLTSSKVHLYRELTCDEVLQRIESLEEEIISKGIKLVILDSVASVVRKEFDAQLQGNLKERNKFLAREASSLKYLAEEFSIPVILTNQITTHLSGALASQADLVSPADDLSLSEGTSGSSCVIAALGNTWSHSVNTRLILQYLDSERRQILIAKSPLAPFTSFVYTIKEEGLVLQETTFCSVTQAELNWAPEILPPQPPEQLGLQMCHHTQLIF
UniProt Q15286: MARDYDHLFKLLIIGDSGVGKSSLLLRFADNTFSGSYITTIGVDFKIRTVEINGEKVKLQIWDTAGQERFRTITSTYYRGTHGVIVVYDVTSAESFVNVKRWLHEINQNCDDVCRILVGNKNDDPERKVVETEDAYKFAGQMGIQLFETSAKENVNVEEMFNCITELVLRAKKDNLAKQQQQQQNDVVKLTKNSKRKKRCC
UniProt P20340: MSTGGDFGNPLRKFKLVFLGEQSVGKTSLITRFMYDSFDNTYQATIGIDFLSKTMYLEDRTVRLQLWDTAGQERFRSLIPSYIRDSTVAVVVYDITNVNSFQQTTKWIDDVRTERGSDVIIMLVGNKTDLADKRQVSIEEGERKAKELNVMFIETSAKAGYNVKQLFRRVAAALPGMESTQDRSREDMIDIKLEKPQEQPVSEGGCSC
UniProt Q9NRW1: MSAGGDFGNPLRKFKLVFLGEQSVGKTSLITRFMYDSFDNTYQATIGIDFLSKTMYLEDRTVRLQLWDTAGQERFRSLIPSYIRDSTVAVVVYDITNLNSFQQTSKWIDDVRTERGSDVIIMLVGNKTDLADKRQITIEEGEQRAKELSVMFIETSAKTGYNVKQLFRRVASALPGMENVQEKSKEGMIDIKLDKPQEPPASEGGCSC
UniProt O60216: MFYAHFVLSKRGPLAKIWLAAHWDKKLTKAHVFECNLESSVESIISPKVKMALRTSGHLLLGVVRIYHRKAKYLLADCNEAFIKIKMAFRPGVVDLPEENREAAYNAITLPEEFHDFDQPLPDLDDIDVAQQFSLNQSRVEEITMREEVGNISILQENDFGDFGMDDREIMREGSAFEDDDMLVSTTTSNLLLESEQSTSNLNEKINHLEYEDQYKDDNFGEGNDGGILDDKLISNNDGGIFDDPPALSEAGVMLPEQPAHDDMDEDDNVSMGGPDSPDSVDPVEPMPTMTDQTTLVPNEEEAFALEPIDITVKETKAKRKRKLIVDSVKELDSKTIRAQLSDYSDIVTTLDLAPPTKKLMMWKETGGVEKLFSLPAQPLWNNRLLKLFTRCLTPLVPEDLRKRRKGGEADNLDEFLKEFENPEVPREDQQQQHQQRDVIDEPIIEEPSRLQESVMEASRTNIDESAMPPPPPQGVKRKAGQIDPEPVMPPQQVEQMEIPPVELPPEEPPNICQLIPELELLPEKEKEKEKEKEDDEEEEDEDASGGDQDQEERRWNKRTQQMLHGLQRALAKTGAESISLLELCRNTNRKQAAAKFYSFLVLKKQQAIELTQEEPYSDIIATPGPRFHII
UniProt Q96S59, whole entry, looked up: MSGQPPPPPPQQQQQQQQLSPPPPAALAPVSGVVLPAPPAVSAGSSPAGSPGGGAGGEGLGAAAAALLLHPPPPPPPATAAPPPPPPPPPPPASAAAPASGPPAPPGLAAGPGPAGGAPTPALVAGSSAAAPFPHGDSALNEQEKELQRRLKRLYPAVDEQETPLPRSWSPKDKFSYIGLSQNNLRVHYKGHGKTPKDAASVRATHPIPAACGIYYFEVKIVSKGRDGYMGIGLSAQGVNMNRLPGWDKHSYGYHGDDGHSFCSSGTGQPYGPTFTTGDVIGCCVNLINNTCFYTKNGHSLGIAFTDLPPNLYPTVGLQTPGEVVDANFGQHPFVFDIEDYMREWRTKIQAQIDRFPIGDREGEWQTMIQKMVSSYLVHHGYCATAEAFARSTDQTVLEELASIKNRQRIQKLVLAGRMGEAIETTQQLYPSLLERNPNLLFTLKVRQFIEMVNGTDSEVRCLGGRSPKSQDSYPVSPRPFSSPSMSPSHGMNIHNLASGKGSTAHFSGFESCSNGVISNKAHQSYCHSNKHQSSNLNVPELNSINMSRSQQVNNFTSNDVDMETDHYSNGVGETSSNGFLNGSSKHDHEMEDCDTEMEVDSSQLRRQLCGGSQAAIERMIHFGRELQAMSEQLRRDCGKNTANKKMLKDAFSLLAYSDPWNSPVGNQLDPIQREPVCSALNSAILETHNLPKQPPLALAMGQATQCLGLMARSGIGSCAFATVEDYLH
UniProt P51153: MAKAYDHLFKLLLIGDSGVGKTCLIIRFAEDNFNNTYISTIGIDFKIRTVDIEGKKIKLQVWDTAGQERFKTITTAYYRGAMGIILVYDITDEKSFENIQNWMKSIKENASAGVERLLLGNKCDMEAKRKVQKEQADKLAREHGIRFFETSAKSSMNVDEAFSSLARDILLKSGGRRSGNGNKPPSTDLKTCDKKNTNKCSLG
UniProt Q8WUD1: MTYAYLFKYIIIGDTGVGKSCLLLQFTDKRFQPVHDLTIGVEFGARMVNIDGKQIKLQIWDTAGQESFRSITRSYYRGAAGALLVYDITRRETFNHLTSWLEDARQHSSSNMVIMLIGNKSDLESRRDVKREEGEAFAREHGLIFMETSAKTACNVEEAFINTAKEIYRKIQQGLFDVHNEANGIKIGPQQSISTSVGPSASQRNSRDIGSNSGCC
UniProt P61020: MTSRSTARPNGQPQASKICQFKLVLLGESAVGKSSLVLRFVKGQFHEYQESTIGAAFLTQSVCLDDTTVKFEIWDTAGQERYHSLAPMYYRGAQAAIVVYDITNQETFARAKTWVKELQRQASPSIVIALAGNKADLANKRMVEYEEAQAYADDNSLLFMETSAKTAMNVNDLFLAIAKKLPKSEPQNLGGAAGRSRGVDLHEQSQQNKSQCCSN
UniProt Q15042: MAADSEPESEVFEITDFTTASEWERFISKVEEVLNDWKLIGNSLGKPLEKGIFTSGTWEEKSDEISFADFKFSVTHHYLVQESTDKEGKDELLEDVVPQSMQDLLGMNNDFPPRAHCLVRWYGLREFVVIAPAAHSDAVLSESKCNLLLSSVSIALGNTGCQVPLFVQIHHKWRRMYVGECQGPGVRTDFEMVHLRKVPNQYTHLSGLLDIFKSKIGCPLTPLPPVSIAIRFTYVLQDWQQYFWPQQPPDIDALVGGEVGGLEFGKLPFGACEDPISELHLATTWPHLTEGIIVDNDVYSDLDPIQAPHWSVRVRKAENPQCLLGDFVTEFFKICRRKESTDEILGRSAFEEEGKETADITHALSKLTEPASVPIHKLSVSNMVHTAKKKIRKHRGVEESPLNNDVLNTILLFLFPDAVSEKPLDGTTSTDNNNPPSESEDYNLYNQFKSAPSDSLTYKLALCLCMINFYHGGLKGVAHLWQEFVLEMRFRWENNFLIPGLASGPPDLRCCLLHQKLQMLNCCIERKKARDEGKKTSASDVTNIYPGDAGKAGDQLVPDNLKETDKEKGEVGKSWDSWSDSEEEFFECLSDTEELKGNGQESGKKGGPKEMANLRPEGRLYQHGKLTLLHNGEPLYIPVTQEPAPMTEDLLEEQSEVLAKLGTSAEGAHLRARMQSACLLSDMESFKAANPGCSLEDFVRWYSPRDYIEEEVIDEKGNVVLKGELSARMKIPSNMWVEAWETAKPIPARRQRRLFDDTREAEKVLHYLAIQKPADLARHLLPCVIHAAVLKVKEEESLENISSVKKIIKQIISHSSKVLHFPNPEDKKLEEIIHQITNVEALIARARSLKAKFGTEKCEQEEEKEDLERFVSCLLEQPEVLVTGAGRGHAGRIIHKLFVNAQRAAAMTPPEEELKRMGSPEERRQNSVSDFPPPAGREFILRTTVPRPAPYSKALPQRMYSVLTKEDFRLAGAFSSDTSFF
UniProt Q16576, whole entry, looked up: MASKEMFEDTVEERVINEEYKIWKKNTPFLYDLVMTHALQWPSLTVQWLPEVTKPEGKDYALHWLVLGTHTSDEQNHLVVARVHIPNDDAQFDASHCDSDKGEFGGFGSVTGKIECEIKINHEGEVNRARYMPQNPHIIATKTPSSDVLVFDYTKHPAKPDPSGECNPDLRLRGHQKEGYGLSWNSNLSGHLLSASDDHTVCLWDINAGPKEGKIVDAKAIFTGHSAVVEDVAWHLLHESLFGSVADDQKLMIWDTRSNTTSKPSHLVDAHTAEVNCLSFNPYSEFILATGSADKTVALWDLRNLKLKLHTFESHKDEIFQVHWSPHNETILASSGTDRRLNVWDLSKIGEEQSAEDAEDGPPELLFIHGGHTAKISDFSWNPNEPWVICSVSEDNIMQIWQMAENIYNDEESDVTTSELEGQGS
UniProt P43487, whole entry, looked up: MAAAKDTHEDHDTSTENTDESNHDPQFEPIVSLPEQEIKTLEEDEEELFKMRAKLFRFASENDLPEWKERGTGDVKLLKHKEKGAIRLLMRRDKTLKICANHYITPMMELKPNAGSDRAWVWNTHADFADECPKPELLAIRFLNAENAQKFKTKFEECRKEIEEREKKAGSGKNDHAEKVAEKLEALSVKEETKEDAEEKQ
UniProt P62834: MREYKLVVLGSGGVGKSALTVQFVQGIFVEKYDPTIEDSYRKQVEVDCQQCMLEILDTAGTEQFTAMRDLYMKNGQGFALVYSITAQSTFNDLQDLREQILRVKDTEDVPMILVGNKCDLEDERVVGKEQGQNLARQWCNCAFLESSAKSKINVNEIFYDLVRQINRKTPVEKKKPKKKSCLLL
UniProt Q15291, whole entry, looked up: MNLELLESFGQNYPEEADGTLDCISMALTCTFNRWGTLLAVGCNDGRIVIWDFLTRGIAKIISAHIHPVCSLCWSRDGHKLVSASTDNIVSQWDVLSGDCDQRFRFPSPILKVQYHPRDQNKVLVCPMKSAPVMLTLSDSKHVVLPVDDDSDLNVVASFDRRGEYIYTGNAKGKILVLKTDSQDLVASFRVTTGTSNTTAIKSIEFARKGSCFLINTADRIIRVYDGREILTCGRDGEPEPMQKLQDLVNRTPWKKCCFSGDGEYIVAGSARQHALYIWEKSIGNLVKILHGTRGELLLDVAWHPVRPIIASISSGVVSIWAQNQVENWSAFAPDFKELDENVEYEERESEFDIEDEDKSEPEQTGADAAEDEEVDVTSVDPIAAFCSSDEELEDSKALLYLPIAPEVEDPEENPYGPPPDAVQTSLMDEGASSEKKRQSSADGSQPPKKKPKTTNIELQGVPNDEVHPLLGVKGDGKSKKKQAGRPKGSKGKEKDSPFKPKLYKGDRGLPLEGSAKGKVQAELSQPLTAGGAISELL
UniProt P11234: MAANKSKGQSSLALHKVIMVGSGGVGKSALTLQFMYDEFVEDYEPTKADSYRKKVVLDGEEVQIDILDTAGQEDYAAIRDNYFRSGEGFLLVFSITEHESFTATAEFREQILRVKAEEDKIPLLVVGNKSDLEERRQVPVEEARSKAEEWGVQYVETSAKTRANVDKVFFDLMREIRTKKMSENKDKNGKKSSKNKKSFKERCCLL
UniProt Q9UL25: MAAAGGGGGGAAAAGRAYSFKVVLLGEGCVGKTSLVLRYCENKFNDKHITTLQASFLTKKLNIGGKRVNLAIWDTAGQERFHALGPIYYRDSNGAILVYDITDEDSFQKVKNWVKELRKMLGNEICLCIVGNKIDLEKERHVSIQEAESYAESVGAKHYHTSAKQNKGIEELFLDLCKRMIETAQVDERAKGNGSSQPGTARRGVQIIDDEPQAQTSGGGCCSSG

log2 fold change, inactive:
RAE1 (UniProt P78406) 0.006
RAB3IP (UniProt Q96QF0) -0.026
RACK1 (UniProt P63244) -0.015
RAD51B (UniProt O15315) 0.002
RAD9A (UniProt Q99638) -0.003
RAB6D (UniProt Q53S08) -0.068
RAB35 (UniProt Q15286) 0.049
RAB6A isoform 2 (UniProt P20340) 0.043
RAB24 (UniProt Q969Q5) -0.065
RAB6B (UniProt Q9NRW1) -0.066
RAB40C (UniProt Q96S21) 0.212
RAB8A isoform 2 (UniProt P61006) 0.006
RAD51AP1 (UniProt Q96B01) -0.089
RAD21 (UniProt O60216) -0.006
RANBP9 (UniProt Q96S59) 0.023
RANBP6 (UniProt O60518) 0.048
RAB13 (UniProt P51153) -0.082
RAB2B (UniProt Q8WUD1) -0.03
RAB5B (UniProt P61020) -0.03
RAMAC (UniProt Q9BTL3) 0.079
RBM10 isoform 5 (UniProt P98175) -0.026
RAB3GAP1 (UniProt Q15042) 0.068
RBBP7 (UniProt Q16576) 0.025
RANBP1 (UniProt P43487) -0.025
RBM14 (UniProt Q96PK6) 0.146
RAP1A (UniProt P62834) -0.001
RBBP5 (UniProt Q15291) -0.03
RAB8A (UniProt P61006) 0.042
RASSF5 (UniProt Q8WWW0) 0.014
RALB isoform 2 (UniProt P11234) -0.004
RAB4A (UniProt P20338) 0.011
RAB30 (UniProt Q15771) 0.02
RAB21 (UniProt Q9UL25) 0.01
RAB12, A0A3B3ITT1 -0.036

A run of entries taken from the entries so far:
log2 fold change, inactive:
RAE1 (UniProt P78406) 0.006
RAB3IP (UniProt Q96QF0) -0.026

From the supplement of paper PMC10849652
